# Several values for one entry are separate records, joined by “and”; a condition that tells them apart may be missing. Identical values can stand only once. Inconclusive means that the source gave no clear call. Such entries were picked first, then a sample of the others. For some of these results: Potencies beside an inconclusive call are fits to weak or partial responses and may not hold up. Activity calls are given as the source filed them. Unless noted, calls follow the shape of the full dose curve.
# By UniProt entry, the sequences of proteins in these tests, tags left out. Where a name states a change or a piece, a line headed by the entry shows the natural chain unless it says otherwise.
# UniProt P28223, whole entry, looked up: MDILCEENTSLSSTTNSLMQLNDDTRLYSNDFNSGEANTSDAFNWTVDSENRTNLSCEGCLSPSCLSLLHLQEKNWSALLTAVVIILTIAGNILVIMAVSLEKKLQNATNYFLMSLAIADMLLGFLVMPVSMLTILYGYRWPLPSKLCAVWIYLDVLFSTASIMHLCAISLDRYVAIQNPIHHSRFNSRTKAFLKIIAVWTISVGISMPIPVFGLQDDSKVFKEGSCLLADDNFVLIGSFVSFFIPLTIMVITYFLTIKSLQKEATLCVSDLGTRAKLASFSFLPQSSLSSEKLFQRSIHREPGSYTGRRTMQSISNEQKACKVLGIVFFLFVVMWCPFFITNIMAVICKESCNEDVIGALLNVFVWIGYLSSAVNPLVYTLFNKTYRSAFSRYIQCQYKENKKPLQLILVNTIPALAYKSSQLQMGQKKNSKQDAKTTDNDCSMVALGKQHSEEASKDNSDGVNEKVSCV
# UniProt P11229: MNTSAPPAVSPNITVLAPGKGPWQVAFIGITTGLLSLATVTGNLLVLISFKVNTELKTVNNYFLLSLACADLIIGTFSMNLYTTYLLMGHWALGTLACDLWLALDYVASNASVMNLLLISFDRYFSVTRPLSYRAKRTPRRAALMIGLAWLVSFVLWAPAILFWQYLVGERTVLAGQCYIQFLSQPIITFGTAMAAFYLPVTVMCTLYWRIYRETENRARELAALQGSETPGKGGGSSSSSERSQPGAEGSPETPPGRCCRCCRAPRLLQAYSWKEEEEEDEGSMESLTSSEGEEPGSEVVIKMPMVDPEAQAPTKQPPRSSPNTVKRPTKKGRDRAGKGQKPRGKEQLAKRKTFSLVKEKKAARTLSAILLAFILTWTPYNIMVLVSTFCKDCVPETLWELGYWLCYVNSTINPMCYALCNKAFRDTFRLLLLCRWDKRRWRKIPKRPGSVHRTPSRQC
# UniProt P14416, whole entry, looked up: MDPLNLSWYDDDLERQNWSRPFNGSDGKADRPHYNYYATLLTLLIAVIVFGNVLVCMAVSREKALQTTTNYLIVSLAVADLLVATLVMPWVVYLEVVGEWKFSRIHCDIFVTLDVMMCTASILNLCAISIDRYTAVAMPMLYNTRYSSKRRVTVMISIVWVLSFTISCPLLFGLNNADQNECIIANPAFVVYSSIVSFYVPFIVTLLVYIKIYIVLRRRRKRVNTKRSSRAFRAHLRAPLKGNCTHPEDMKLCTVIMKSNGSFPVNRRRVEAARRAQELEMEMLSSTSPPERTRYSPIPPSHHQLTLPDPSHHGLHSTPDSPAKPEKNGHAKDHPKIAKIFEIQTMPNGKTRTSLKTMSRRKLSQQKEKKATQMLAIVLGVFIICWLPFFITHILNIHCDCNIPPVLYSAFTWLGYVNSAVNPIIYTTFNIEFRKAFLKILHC
# How the values were obtained:
# [1] = p53 small molecule agonists, cell-based qHTS assay with human liver microsomes: qHTS cell viability counter screen (AID 1963579); also: nearly all actives have a fitted effect of over 45% in size; also: potency is read from the fitted curve at half-maximal effect
# How it was run: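 Viability of p53RE-bla cells is measured as CellTiter-Glo luminescence following a 16 h, 37 C incubation with compound, liver microsomes from human donors and NADPH.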
# [2] = p53 small molecule agonists, cell-based qHTS assay (AID 1963582; active = well fitted activation curve with a large enough effect in the signal ratio in the repeat runs, not every such curve was filed as active; inconclusive = weak or mixed curves; the % refers to the signal ratio; also: potency is read from the fitted curve at half-maximal effect); conditions: HCT-116 p53RE-bla reporter, beta-lactamase FRET ratio, 16 h; activation: at 66 µM (top of the series) unless noted
# How it was run: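 Measured: fluorescence from cleaved LiveBLAzer substrate. System: p53RE-bla cells, 16 h compound treatment at 37 C, 2 h substrate step at room temperature.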
# [3] = target: 5-hydroxytryptamine receptor 2A (Homo sapiens) (UniProt P28223); assay: 5-hydroxytryptamine receptor 2A (HTR2A) small molecule agonists, cell-based qHTS assay (AID 1963587); also: nearly all actives have a fitted effect of over 30% in size; also: potency is read from the fitted curve at half-maximal effect
# How it was run: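 CHO cells stably expressing human HTR2A, plated 18 h, loaded with calcium dye 1 h at 37 C. Agonist mode: compounds added and intracellular calcium fluorescence recorded kinetically for 2 min at 1 sec intervals.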
# [4] = target: Muscarinic acetylcholine receptor M1 (Homo sapiens) (UniProt P11229); assay: Cholinergic receptor muscarinic 1 (CHRM1) small molecule antagonists, cell-based qHTS assay (AID 1963588); also: nearly all actives have a fitted effect of over 40% in size; also: potency is read from the fitted curve at half-maximal effect
# How it was run: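 Compounds were tested at 15 concentrations in three independent runs. Dye-loaded CHRM1-CHO cells were exposed 5 min at room temperature before stimulation by acetylcholine added at 50nM. Intracellular calcium was read kinetically on FDSS for 3 min.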
# [5] = cAMP Responsive Elements (CRE) small molecule agonists, cell-based qHTS assay (AID 1963590); conditions: CRE-bla HEK293T, beta-lactamase FRET ratio, 3 h; activation: at 92.4 µM (top of the series) unless noted; also: potency is read from the fitted curve at half-maximal effect
# How it was run: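 Test agents in DMSO were incubated 3 h at 37 C/5% CO2 with CRE-bla HEK 293T cells seeded 18 h earlier; LiveBLAzer B/G FRET substrate was added and read after 2 h at room temperature.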
# [6] = cAMP Responsive Elements (CRE) small molecule antagonists, cell-based qHTS assay (AID 1963591; active = well fitted inhibition curve with a large enough effect in the signal ratio in the repeat runs, not every such curve was filed as active; inconclusive = weak or mixed curves, or effect the other way; the % refers to the signal ratio; also: potency is read from the fitted curve at half-maximal effect); conditions: CRE-bla HEK293T, beta-lactamase FRET ratio; activity change, negative = inhibition: at 92.4 µM (top of the series) unless noted
# How it was run: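 Reporter line CRE-bla HEK 293T in dialyzed-FBS DMEM; cells preincubated 18 h, treated 3 h with compound plus NKH477 (0.25 uM final); LiveBLAzer FRET, 2 h RT.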
# [7] = target: Beta-2 adrenergic receptor (Homo sapiens) (UniProt P07550); assay: Adrenergic beta2 receptor (ADRB2) small molecule agonists, cell-based qHTS assay (AID 1963593); conditions: CHO-ADRB2 cells, cAMP HTRF, 30 min; also: potency is read from the fitted curve at half-maximal effect;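 as to activation: CHO cells stably overexpressing human ADRB2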
# How it was run: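 CHO cells stably over-expressing ADRB2 were plated overnight at 37C, then dosed with compounds plus a stimulation mix containing 100uM IBMX and 25uM Ro-20-1724 for 0.5hr at room temperature. cAMP was measured by HTRF competition, 1hr.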
# [8] = target: Beta-2 adrenergic receptor (Homo sapiens) (UniProt P07550); assay: Adrenergic beta2 receptor (ADRB2) small molecule antagonists, cell-based qHTS assay (AID 1963592); conditions: CHO-ADRB2 cells, isoproterenol-stimulated cAMP HTRF ratio, 0.5 h; activity change, negative = inhibition: at 92.4 µM (top of the series) unless noted; also: nearly all actives have a fitted effect of over 50% in size
# How it was run: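 Assay format: CHO-ADRB2 cells, 18-20hr seeding at 37C/5% CO2, then compound plus 1nM isoproterenol agonist mix for 0.5hr RT. Homogeneous time-resolved fluorescence cAMP detection after 1hr, expressed as 665/615 nm ratio.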
# [9] = target: D(2) dopamine receptor (Homo sapiens) (UniProt P14416); assay: Dopamine D2 receptor (DRD2) small molecule antagonists, cell-based qHTS assay (AID 1963595; active = well fitted inhibition curve with a large enough effect in the signal ratio in the repeat runs, with a control signal flat; inconclusive = weak or mixed curves, or effect the other way; the % refers to the signal ratio); conditions: HEK293-DRD2 cAMP HTRF antagonist mode; activity change, negative = inhibition: at 92.4 µM (top of the series) unless noted
# How it was run: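 HTRF cAMP read-out at 665 and 620 nm emission (340 nm excitation). Antagonist mode: compounds were tested against 12 nM quinpirole in DRD2-HEK293 cells, with 200 nM NKH477 raising cAMP and 0.1 mM Ro20-1724 blocking its breakdown.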
# [10] = target: 5-hydroxytryptamine receptor 2A (Homo sapiens) (UniProt P28223); assay: 5-hydroxytryptamine receptor 2A (HTR2A) small molecule antagonists, cell-based qHTS assay (AID 1963586); also: nearly all actives have a fitted effect of over 45% in size; also: potency is read from the fitted curve at half-maximal effect
# How it was run: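 CHO cells stably expressing human HTR2A were plated for 18 h at 37 C, then loaded with calcium dye for 1 h. Compounds were preincubated 5 min at room temperature before DOI (4 nM solution) was added. Kinetic fluorescence was read for 3 min.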
# [11] = target: D(2) dopamine receptor (Homo sapiens) (UniProt P14416); assay: Dopamine D2 receptor (DRD2) small molecule agonists, cell-based qHTS assay (AID 1963594); conditions: HEK293-DRD2 cAMP HTRF, agonist mode, 30 min; activation: at 92.4 µM (top of the series) unless noted; also: nearly all actives have a fitted effect of over 35% in size
# How it was run: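 HEK293 cells stably expressing human DRD2, pre-treated with PDE inhibitor Ro20-1724 (0.1 mM final) and compound 10 min at room temperature, then stimulated with NKH477 (200nM […]) for 30 min. cAMP read by HTRF (665/620 nm).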
# [12] = activation: at 92.4 µM (top of the series) unless noted
# % is scaled to controls: 0 for no effect and ±100 for the full control effect.
smiles,measurement,setting,value
C=CC(=O)OCCn1c(=O)n(CCOC(=O)C=C)c(=O)n(CCOC(=O)C=C)c1=O,Potency,[1],"inconclusive: 10.2 µM [cytotoxic, full curve]"
same,Potency,[2],"inconclusive: 16.2 µM [rising, partial curve]"
same,Potency,[3],inactive
same,Potency,[4],inactive
same,Potency,[5],inconclusive: 30.6 µM
same,Potency,[6],"inconclusive: 24.3 µM [rising, partial curve]"
same,activation,[7]; [12],inconclusive: 8.54%
CCCCCCCCCC(C)C=O (configuration not stated),Potency,[1],"inconclusive: 51.3 µM [cytotoxic, partial curve, poor fit]"
same,Potency,[2],"inconclusive: 28.9 µM [rising, partial curve]"
same,Potency,[5],"inconclusive: 68.6 µM [rising, single point]"
same,Potency,[7]; [12],"inconclusive: 77 µM [inhibitor, single point]"
CCOCCn1c(C2CCN(CCc3ccc(C(C)(C)C(=O)O)cc3)CC2)nc2ccccc21,Potency,[1],"inconclusive: 5 µM [cytotoxic, single point]"
same,Potency,[2],inactive
same,Potency,[3],"inconclusive: 26.8 µM [activator, single point]"
same,Potency,[4],"inconclusive: 0.0205 µM [inhibitor, single point]"
same,activation,[7]; [12],inconclusive: -39.2% [at 42.5 µM]
CC(C)=CCC1C(=O)N(c2ccccc2)N(c2ccccc2)C1=O,Potency,[1],"inconclusive: 22.3 µM [cytotoxic, single point]"
same,Potency,[2],"inconclusive: 12.6 µM [rising, partial curve, poor fit]"
same,Potency,[5],"inconclusive: 21.1 µM [rising, partial curve, poor fit]"
same,"activity change, negative = inhibition",[8],inconclusive: -2.9% [at 42.5 µM]
same,"activity change, negative = inhibition",[9],inconclusive: -95.4% [at 42.5 µM]
CS(C)(=O)=O,Potency,[1],inactive
same,Potency,[2],inactive
same,Potency,[6],inactive
CCOCCn1c(N2CCCN(C)CC2)nc2ccccc21,Potency,[1],inactive
same,Potency,[10],"inconclusive: 18.3 µM [inhibitor, single point]"
same,Potency,[4],"inconclusive: 1.3 µM [inhibitor, full curve]"
same,"activity change, negative = inhibition",[6],inconclusive: 2.85% [at 42.4 µM]
same,Potency,[7]; [12],inactive
CCNc1cccc(C)c1,Potency,[1],"inconclusive: 10.2 µM [cytotoxic, single point]"
same,Potency,[2],inactive
same,Potency,[8],inactive
same,Potency,[7]; [12],"inconclusive: 416 nM [inhibitor, partial curve, poor fit] and inactive"
same,activation,[11],inconclusive: 20.7%
same,"activity change, negative = inhibition",[9],inconclusive: 3.42%
O=Cc1cccc(Br)c1,Potency,[1],"inconclusive: 46.9 µM [cytotoxic, single point]"
same,Potency,[2],"inconclusive: 37.3 µM [activator, partial curve, poor fit]"
same,Potency,[7]; [12],inactive
O=[N+]([O-])c1ccc(O)cc1C(F)(F)F,Potency,[1],"inconclusive: 18.2 µM [cytotoxic, full curve]"
same,Potency,[2],"inconclusive: 32.4 µM [activator, partial curve, poor fit]"
same,Potency,[5],"inconclusive: 17.2 µM [rising, full curve]"
same,activation,[7]; [12],inconclusive: -72.1%
C[C@@H](O)[C@H]1C(=O)N2C(C(=O)O)=C(S[C@@H]3CN[C@H](CNS(N)(=O)=O)C3)[C@H](C)[C@H]12,Potency,[1],inactive
same,Potency,[10],inactive
same,Potency,[5],"inconclusive: 23.7 µM [rising, partial curve, poor fit]"
same,Potency,[6],"inconclusive: 23.7 µM [activator, partial curve, poor fit]"
same,"activity change, negative = inhibition",[8],inconclusive: -18.1% [at 42.5 µM]
same,Potency,[7]; [12],"inconclusive: 0.0841 µM [inhibitor, single point]"
CCCN[C@H]1CCc2nc(N)sc2C1,Potency,[1],"inconclusive: 49.2 µM [cytotoxic, single point]"
same,Potency,[2],inactive
same,activation,[5],inconclusive: 21.2% [at 42.5 µM]
same,Potency,[6],inactive
same,Potency,[7]; [12],inactive
Cc1nc(-c2ccc(Cl)cc2)oc1COC(C)(C)C(=O)O,Potency,[1],"inconclusive: 0.158 µM [rising, partial curve, poor fit]"
same,Potency,[5],"inconclusive: 11.9 µM [rising, full curve]"
same,Potency,[6],inactive
same,Potency,[7]; [12],inactive
O=[N+]([O-])c1ccc(/C=N\O)o1,Potency,[1],"inconclusive: 0.446 µM [cytotoxic, single point]"
same,Potency,[10],inactive
same,Potency,[6],inactive
same,"activity change, negative = inhibition",[8],inconclusive: 3% [at 42.5 µM]
same,Potency,[7]; [12],inactive
COC(=O)c1cccnc1,Potency,[1],"inconclusive: 45.8 µM [cytotoxic, partial curve, poor fit] and inconclusive: 5 µM [cytotoxic, single point]"
same,Potency,[10],inactive
same,Potency,[5],inactive
same,activation,[7]; [12],inconclusive: 12.3% [at 42.5 µM]
same,activation,[7]; at 92.4 µM (top of the series),inactive: 10.5%

# From PubChem BioAssay (Tox21)
